Results taken from patent US12433964B2, “Antiviral and antibacterial disinfection aero-solution using edible food dyes” (Purdue Research Foundation, priority 2020, dated 2025).

Test: Detection of photogenerated singlet oxygen with turn-off fluorescent ABDA radical probe and NaN3 scavenger
Format: physicochemical

## C1=Cc2nc1c(-c1ccccc1)c1ccc([nH]1)c(-c1ccccc1)c1nc(c(-c3ccccc3)c3ccc([nH]3)c2-c2ccccc2)C=C1.[Zn] [ZnTPP, 5,10,15,20-Tetraphenyl-21H,23H-porphine zinc]
Photosensitizer in solution with 20 μM ABDA, green light 530 nm, 0.02 mW mm^−2 (FIG. 3b)
  intensity of ABDA fluorescent peaks as irradiation time increases (singlet oxygen generation): gradually drops
With NaN3 scavenger, green light 530 nm (FIG. 3c)
  intensity of ABDA in the presence of singlet oxygen scavenger: no significant difference
